# Test results taken from PubChem BioAssay AID1347423 (Functional Genomics Laboratory (NCATS/FGL), 2020).
# About 210 (0.4%) of roughly 52,000 sequences were called active.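 The calls were made as follows: active = gene whose silencing raises cell survival under the drug, median off-target-corrected z-score across its silencing RNAs 2 or more; inactive = the rest.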 This is one part of the list.
# Test: Resistance to Poly (ADP-Ribose) Polymerase inhibitor: Gene Identification via Genome-wide siRNA Screen
# Conditions: mouse BRCA2 R2336H ES cells, olaparib, CellTiter-Glo viability; active compounds read high
# Method in brief: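 Genome-wide siRNA screen (3 siRNAs/gene, 20 nM) in mouse ES cells carrying hypomorphic BRCA2 R2336H; olaparib 500 nM added 48 h post-transfection, CellTiter-Glo viability 72 h later. Normalized to plate-median negative control; MAD z-scores, gene median, seed-adjusted.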
row,Sequence,z-score
1,CCAACCUAAGCACUCCAAATT against BC010250,inactive: -2.79
2,CCAGCAAUAACAAUCAGAGTT against Prosapip1,inactive: -0.107
3,GGACCACUCCAAGAGUUCUTT against B130055D15Rik,inactive: -1.72
4,GCGGUAAGGAACUUAAUGATT against Fv1,inactive: 1.11
5,GGAACACACAGAGGUUUAUTT against Ptpla,inactive: -0.682
6,GGAGAUCUAUUCGGACACUTT against Inpp5a,inactive: 0.263
7,GCCGAACAAAAACACCGAUTT against A430107P09Rik,inactive: 0.0605
8,CCACUGUGCAAGAAGCACGTT against Ldb3,inactive: -0.796
9,GGUUAUCAAGGACCAAAAATT against Ivl,inactive: -2.21
10,GGACAAAGGUGUCAACUCCTT against Crmp1,inactive: -0.491
11,GGAAUGAAUAAGUAGAGACTT against Unc5cl,inactive: -0.0998
12,GCCGAGAGAGCCAAUACAATT against Tcd1d16,inactive: -0.49
13,GGUUCACUUCAGUGUAUAUTT against Morf4l1,inactive: -0.728
14,GGUACUUGAGUUGGCAGGATT against H2afz,inactive: 1.93
15,GGCUGUGGGUCUAUUCUACTT against 3110005O21Rik,inactive: -0.846
16,GGGUGAUUUCUACCUUCAATT against D630003M21,inactive: -0.929
17,GGUUGAGUUCCUGUAACUUTT against Mat1a,inactive: -0.0141
18,CCAUAGUGUAUCUGACUGGTT against D6Ertd349e,inactive: -1.87
19,GCAAGAACCUGGCCCAGAATT against Folr4,inactive: -2.53
20,GUUCUACAUCAAGACAUCCTT against Crabp1,inactive: 1.97
21,CCACCUUUCUCACAGAUAATT against A430065P19Rik,inactive: -0.213
22,GGACGAUUCAAGGUAACAUTT against Esrrg,inactive: -0.00394
23,GGCUUUACAAAUCUUGUCUTT against Gpx6,inactive: 0.551
24,GCGAUGUUUGGAUGACUUATT against Eftud1,inactive: -0.883
25,GCAUCUGGAAUUAUGGGUCTT against 2310030G06Rik,inactive: -0.55
26,GGAAAACUUGAGGCGGAUCTT against E130303B06Rik,inactive: 1.04

# Three entries picked at random from those above:
row,Sequence,z-score
3,GGACCACUCCAAGAGUUCUTT against B130055D15Rik,inactive: -1.72
10,GGACAAAGGUGUCAACUCCTT against Crmp1,inactive: -0.491
13,GGUUCACUUCAGUGUAUAUTT against Morf4l1,inactive: -0.728

# The results go on:

row,Sequence,z-score
1,CCUCGGUCAGAUUCCUGAUTT against Phpt1,inactive: -0.189
2,GAUGUCCUUCACCUUUGCCTT against Atp5d,inactive: -1.62
3,CCCUUUCGAGGUGGUAAAATT against Slc25a21,inactive: -0.768
4,GGGCGUACCUGUCUUUUCATT against 9030616D13Rik,inactive: 2.29
5,GGGACUCCCUACAUUAAUCTT against 1110033O09Rik,inactive: 1.3
6,GGAAAUGGCUAUUGAUAUCTT against Actl6b,inactive: -0.329
7,GGACUAUAUCAGCGGAAGUTT against BC023957,inactive: 0.454
8,CCCUACAAAGUAUAUCGAATT against Isgf3g,inactive: -0.403
9,CGAAUGGCAUACAAUAACCTT against C1qtnf7,inactive: -0.174
10,GGUAGAGAACCAUUUGCUGTT against Dtnbp1,inactive: -0.121
11,GCCCAGGUCUAAUGUCUAATT against Tac4,inactive: -2.75
12,GCAAGGAUUACCUAUAGGATT against 3000004N20Rik,inactive: 0.588
13,GGAAAGGGCGGUUCAAAAGTT against Cacnb1,inactive: 0.656
14,CCAUCUUGACAUCUCGUGUTT against Olfr592,inactive: -0.522
15,GGCAACAACAUACCUAAUATT against 2410005O16Rik,inactive: 0.687
16,GGUCAAACAAGAAACAGUUTT against Prdm1,inactive: 0.23
17,GGCAUUCUGAGGAGAGCAATT against Tcfap2d,inactive: 0.634
18,CGAGUUAGCCUUCAUCCCUTT against Islr,inactive: -0.0401
19,GGACAUUUUUAUGCACAAUTT against Il1rl2,inactive: 0.108
20,GGCAAAGAUAAUAAAGCUATT against Xpo1,inactive: -1.85
21,GGGACGCAGUUUUCCGAUGTT against Nkx2-3,inactive: 0.973
22,GGAACAGAAGAAAAAACACTT against Ftsj3,inactive: -0.749
23,CCUCAAUGGGUUUGUUCAATT against Kcns3,inactive: -1.21
24,GGGUUAUUCAAGAAAAGCATT against Stip1,inactive: -1.59
25,GCUGUGUCGGUGUUGGAUGTT against C330006K01Rik,inactive: -2.28
26,GGCUCUUGCCAGAAUUAACTT against 0610009E20Rik,inactive: 1.15
